Reference: publication doi:10.1101/153262

Legend:
[1] = target: Enterococcus italicus Cas10 (Csm1) HD domain mutant (HD>AN) (Enterococcus italicus DSM-15952) (UniProt E6LHV7); assay: co-purification
[2] = target: Enterococcus italicus Cas10 (Csm1) Palm domain mutant (GGDD>GGAA) (Enterococcus italicus DSM-15952) (UniProt E6LHV7); assay: co-purification

B1: Enterococcus italicus Csm5 subunit of the EiCsm(1-5) complex (protein, UniProt E6LHV3 1-349)
chain: MIEKVYQVKLKVYGPVHIGSGKIIRKQEYIYDRRKSLAHIVDGPNLVKFLNKKGKFTAYLQYLNTTKERADLYTFLRQEQIDTNDWKTFVLYTERVNQGKIDMKDHNPYSRTSTNRRQVDKGMNDLHLFVRDGRGDLYIPGSSLKGALRTVLEGANQSAEAFHSLSISDSLPIDPKNLAIYQKIDINKELKPMPLYRECVNVGTTVEFTMKINSDDWTIEKIEKQIQQAYLQYWNKWFVGMVTTPGGKAFIKGGGLPSVLHAKHRPTVLFLGGGTGFPSKTTHYLQKPKEQAQKDIFAILQRRFRNVYGKMATVPKNVPMVLKGTVNDSTNKWYQQGVCLLEFQPIGEA
[1]
  binding: binds
[2]
  binding: binds

These are yes or no findings as the source states them, for the method shown. Binding seen in cells or lysates may run through a third protein. Binding can be weak; no strength is given.
